The record followed here is patent US20160039903A1 (Stanford University, published 2016).

Sequences of proteins named here, by UniProt entry; tags and fusion partners are left off. Residues count along the entry.
UniProt Q9EP73, residues 19-132: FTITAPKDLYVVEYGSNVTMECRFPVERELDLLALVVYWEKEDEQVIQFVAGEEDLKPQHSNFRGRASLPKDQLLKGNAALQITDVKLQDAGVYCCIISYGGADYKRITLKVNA

Results are given in words; binding and its absence hold for the method and conditions named. Some binding calls cover weakened binding; strength is not graded here.

For this test, the target named is mouse PD-L1 displayed on yeast (mouse) (UniProt Q9EP73). The experiment in a line: competition flow cytometry on yeast displaying mouse PD-L1; competitor probe: labeled native PD-1 streptavidin tetramer.

B1: wild-type human PD-1 IgV domain (residues 26-147), native PD-1 mimic polypeptide (receptor)
chain: DSPDRPWNPPTFSPALLVVTEGDNATFTCSFSNTSESFVLNWYRMSPSNQTDKLAAFPEDRSQPGQDCRFRVTQLPNGRDFHMSVVRARRNDSGTYLCGAISLAPKAQIKESLRAELRVTERHHHHHHHH
notes: Soluble monomer secreted from High Five insect cells; also called wild-type hPD-1; WT PD-1 monomer
For B1, the binding entry was “binds”.
